Measured values as given in paper PMC7748142.

Sequences of proteins named here, by UniProt entry; tags and fusion partners are left off. A change or cut given only in a name is not applied to a line headed by its entry.
UniProt P10599: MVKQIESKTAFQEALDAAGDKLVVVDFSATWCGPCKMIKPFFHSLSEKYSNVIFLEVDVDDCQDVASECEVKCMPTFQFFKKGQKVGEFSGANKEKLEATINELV

Legend:
[1] = molecular target: TRX1 trapping mutant (TRX1-CS) (UniProt P10599); assay: pull-down; kinetic trapping: HEK 293T cells expressing SBP/His-tagged TRX1 variants, oxidative stimulus (H2O2 10 mM or 1 mM, 15 min; or Auranofin 4 uM, 4 h; with or without KU55933 10 uM, 1 h pre-treatment); lysis in Triton X buffer with 50 mM NEM; TRX1 pulled down overnight at 4 °C on streptavidin agarose; Western blot
[2] = molecular target: TRX1 trapping mutant (TRX1-CS) (UniProt P10599); assay: condition: only unstimulated cells (no oxidative stimulus); pull-down; kinetic trapping as a1, but cells left untreated (unstimulated); TRX1 pulled down on streptavidin agarose; Western blot

B1: peroxiredoxin 1 (PRDX1) (enzyme, UniProt Q06830 1-199)
chain: MSSGNAKIGHPAPNFKATAVMPDGQFKDISLSDYKGKYVVFFFYPLDFTFVCPTEIIAFSDRAEEFKKLNCQVIGASVDSHFCHLAWVNTPKKQGGLGPMNIPLVSDPKRTIAQDYGVLKADEGISFRGLFIIDDKGILRQITVNDLPVGRSVDETLRLVQAFQFTDKHGEVCPAGWKPGSDTIKPDVQKSKEYFSKQK
binding [1]: binds
binding [2]: no binding

Results are given in words; binding and its absence hold for the method and conditions named. Binding seen in cells or lysates may run through a third protein. For some assays here: A result given as binding can be weak or reduced; the word gives no strength.
